According to PMC10163288:
This is one part of the list.

B1: il2ra_site2_2erj_normal_mot_HHH_b2_02252_af2_000000112_0001_23_39_H_._HHH_b2_01517_af2_0001_0000700005_0000001_0 (protein)
chain: SSSSSDELEELLQEAKELLEEGNPEEALEAARRAFELAFKLGDHEAAAEIIELAHQIVRHSSSSS
B2: il2ra_site2_2erj_normal_mot_HHH_b2_07139_000000086_0001_40_57_H_._HHH_b1_00399_0001_0000100003_0000001_0 (protein)
chain: SSSSDVEERVRELLEEAEERFKEGDLERVFELLSRALHEASEANNDELQQAIEEFFEELASSSSS
B3: il2ra_site1_2b5i_sap_17_mot_3c291a2f2994a8e029b17f9ec7f22732_0001_000000088_0001_17_31_H_._HHH_b1_06138_0001_0000500021_0000001_0_0001_af2pred_dldesign_0_af2pre … (protein)
chain: SSSSSDPRAEVERLIEEARRLYEAGKRREALEALEKAYKLASAANDEALQDEIEALAKEISSSSS
B4: il2ra_site2_3nfp_sap_20_mot_HHH_b1_05785_af2_000000002_0001_41_57_H_._HHH_b1_00695_af2_0001_0000100002_0000001_0_0001_af2pred_0001_af2pred (protein)
chain: SSSSSDEERLEELQRELRELLEEGDEEEAERVAQELATLALELGDHEAFAEALSVLKELESSSSS
B5: il2ra_site2_3nfp_normal_mot_HHH_b2_07083_af2_000000083_0001_42_56_H_._HHH_b1_04834_0001_0000600037_0000001_0_af2pred_0001_af2pred_1 (protein)
chain: SSSSDIEERVRELLEELEEALREGDEELFRELLKEVSELAAEANDPELLHEVAELFLKFGSSSSS
B6: il2ra_site1_3nfp_sap_10_mot_d8099cd8ef6a59b9c03de2010570d688_0001_af2_000000184_0001_37_51_H_._ems_3hC_894_0002_af2_0001_0000100001_0000001_0_0001 (protein)
chain: SSSSNEVRREIQELLKEAMELTANGNPEEARKLLEEALELAEEAGDEAILRFIKEMLERIKSSSS
B7: il2ra_site2_2erj_normal_mot_HHH_b2_05804_000000098_0001_44_58_H_._HHH_b2_01664_0001_0000600009_0000001_0 (protein)
chain: SSSSSSWKEVWERVAELLAEAQKIKDPEELRRLLEEAQELAEEANSEFLERYIEFARRDLSSSSS
B8: il2ra_site2_2erj_normal_mot_HHH_b1_03990_af2_000000075_0001_19_35_H_._HHH_b2_03245_af2_0001_0000300008_0000001_0 (protein)
chain: SSSSSEEVFEAWALAAEAFHKLAREGDDELFERLQELSARLAREGDPEVAEELLRLAEEVLSSSS
B9: il2ra_site1_1z92_normal_mot_HHH_b2_01902_af2_000000252_0001_25_40_H_._HHH_b1_06549_af2_0001_0000100014_0000001_0_af2pred_dldesign_0_af2pred (protein)
chain: SSSSSPLERAARQYVDAIKEIAGLSDEQYAELLAEAERLAAAGVPVRDIAKALDKRAAELLSSSS
B10: il2ra_site2_3nfp_normal_mot_HHH_b1_04761_000000247_0001_39_52_H_._HHH_b2_05186_0001_0000100007_0000001_1 (protein)
chain: SSSSDHEEAVEAALQLAEALRERVSEEDQEELERLYRELREEGDPELAIELFKLILELYDSSSSS

Biological target: il2ra, P01589
Test: yeast display titration

Apparent Kd, inactive:
B1 no binding seen
B2 no binding seen
B3 no binding seen
B4 no binding seen
B5 no binding seen
B6 no binding seen
B7 no binding seen
B8 no binding seen
B9 no binding seen
B10 no binding seen

Reprinted at random: 2 entries already listed, in no set order.
Apparent Kd, inactive:
B3 no binding seen
B5 no binding seen
